Key:
[1] = printing on cotton and viscose: shade, wash-off and cross-staining of the print; conditions: printed on cotton and viscose
[2] = printing on cotton: shade, wash-off and cross-staining of the print; conditions: printed on cotton
From the text: The title product was obtained in a yield of 60% (34 g) and found to have a lambda max at 414 nm.

[3] = standard SCWOT test of print on cotton

Question: For CCN(c1nc(Cl)nc(Nc2ccc(N=Nc3cc4c(S(=O)(=O)O)cc(S(=O)(=O)O)cc4cc3S(=O)(=O)O)c(NC(N)=O)c2)n1)c1cc(S(=O)(=O)O)ccc1C [Example 1], which “cross-staining of adjacent fibres” value ([1]; alginate print paste) is on record?
Answer: little

Question: What about the wash-off properties ([1]; alginate print paste) of the same molecule?
Answer: excellent

Question: And the shade of print [1]?
Answer: attractive golden-yellow shade

Question: Which wash-off [2] does the source give for CC(C)N(c1ccc(S(=O)(=O)O)cc1)c1nc(Cl)nc(Nc2ccc(N=Nc3cc4c(S(=O)(=O)O)cc(S(=O)(=O)O)cc4cc3S(=O)(=O)O)c(NC(N)=O)c2)n1 [Example 4] here?
Answer: good

Question: Which “cross-staining of adjacent fibres” value [2] does the source give for CC(C)N(c1cccc(S(=O)(=O)O)c1)c1nc(Cl)nc(Nc2ccc(N=Nc3cc4c(S(=O)(=O)O)cc(S(=O)(=O)O)cc4cc3S(=O)(=O)O)c(NC(N)=O)c2)n1 [Example 3] here?
Answer: little

Question: And the wash-off [2]?
Answer: good

Question: With CCN(c1nc(Nc2ccc(N=Nc3cc4c(S(=O)(=O)O)cc(S(=O)(=O)[O-])cc4cc3S(=O)(=O)O)c(NC(N)=O)c2)nc(-[n+]2ccc(C(=O)O)cc2)n1)c1cc(S(=O)(=O)O)ccc1C [Example 2] as the molecule, how does the shade of print [1] read?
Answer: attractive golden-yellow shade

Question: For CCN(c1nc(Cl)nc(Nc2cc(NC(C)=O)c(N=Nc3cc(S(=O)(=O)O)c4cccc(S(=O)(=O)O)c4c3)cc2OC)n1)c1cc(S(=O)(=O)O)ccc1C [Example 5], which shade of print [2] is on record?
Answer: attractive golden-yellow shade

Question: What about the cross-staining [3] of the same molecule?
Answer: little

Question: What about the wash-off properties [3] of the same molecule?
Answer: excellent

From patent publication US5516897A, “Monoazo reactive dyes and solutions thereof” (Zeneca Limited, priority 1992, dated 1996)
